Assay results published in PubChem BioAssay AID1439 (NMMLSC, 2008).
The campaign covered roughly 220,000 compounds. About 770 (0.35%) were called active. The shares of active, inactive and inconclusive entries below differ from those in the screen. Cut-off read from the data, not from the text of the source: active = binding response below about 49% or above about 150%; inconclusive = no clear call, values can overlap the other calls; inactive = in between.

Amino acid sequences for entries named in this document (tags omitted).
UniProt P09471, whole entry, looked up: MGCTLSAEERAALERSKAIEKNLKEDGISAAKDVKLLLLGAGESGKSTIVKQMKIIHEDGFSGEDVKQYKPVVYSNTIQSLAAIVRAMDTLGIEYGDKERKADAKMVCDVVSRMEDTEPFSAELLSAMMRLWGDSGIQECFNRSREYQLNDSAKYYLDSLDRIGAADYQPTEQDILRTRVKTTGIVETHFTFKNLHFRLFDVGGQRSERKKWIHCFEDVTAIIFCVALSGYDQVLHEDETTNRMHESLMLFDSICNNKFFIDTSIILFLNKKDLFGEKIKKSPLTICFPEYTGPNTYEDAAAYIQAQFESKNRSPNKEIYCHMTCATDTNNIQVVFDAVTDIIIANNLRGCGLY

Each compound was assayed against Guanine nucleotide-binding protein G(o) subunit alpha (Homo sapiens) (UniProt P09471) (assay: RGS7-Galphao binding modulators, primary screen, biochemical, multiplexed bead flow cytometry (AID 1439;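 note: fluorescent Galphao held in activated GDP-AlF4 state binding bead-coupled RGS7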)). Conditions: at 10 µM, actives lie on both sides.

| SMILES | binding response (% of control) |
| --- | --- |
| COc1ccc(OC)c(NC(=O)c2ccccc2NC(=O)c2ccco2)c1 | inconclusive: 60.6% |
| COC(=O)CCC(=O)OC1(C)C(=O)C2=CN(CCCOC(C)C)C(c3ccc(OC)cc3)=CC2=C(Br)C1=O (stereo not given) | inconclusive: 37.7% |
| Cc1cc(C)nc(N/N=C/c2cn[nH]c2-c2ccc(F)cc2)n1 | inconclusive: 95.4% |
| COc1ccccc1CNC(=O)COC(=O)c1cccnc1SCC(=O)NCc1ccccc1OC | inconclusive: 105% |
| CC(=O)c1sc(=S)n(-c2ccc(Cl)cc2)c1C | inconclusive: 92.2% |
| Cc1cnc(NC(=O)c2cccc(S(=O)(=O)N3CC(C)OC(C)C3)c2)s1 (stereo not given) | inconclusive: 92.6% |
| CCN(CC)C(=O)c1cnn(-c2ccccc2)c1NC(=O)c1cccs1 | inactive: 97.9% |
| Clc1cccc(-c2nnc(-c3ccno3)o2)c1 | inconclusive: 121% |
| Cc1ccc(SCC(=O)N=C2NC(=O)CS2)cc1 | inactive: 101% |
| NNC(=O)c1ccc(NS(=O)(=O)c2ccc(Br)cc2)cc1 | inconclusive: 332% |
| CC(C)c1ccc(NC(=O)CSc2ncccc2C(=O)Oc2cccc([N+](=O)[O-])c2)cc1 | inactive: 129% |
| COC(=O)C1=C(C)NC(C)=C(C(=O)OC)C1c1ccc(C)o1 | inconclusive: 47.3% |
| O=C(Nc1nc2ccccc2s1)C1=NN(c2ccccc2)C(=O)CC1 | inactive: 98.3% |
| CC(O)[C@H]1CN=C(N)N1CCc1cc(C(F)(F)F)cc(C(F)(F)F)c1 (stereo not given in full) | inconclusive: 115% |
| Cc1cc(NC(=O)c2ccccc2F)n(-c2nc3ccccc3[nH]2)n1 | inactive: 100% |
| O=c1ccc(-c2n[nH]c(=S)n2-c2ccc(F)c(Cl)c2)n[nH]1 | inconclusive: 84.1% |
| C=CCn1c(SCC(=O)Nc2cccc3ccccc23)nnc1-c1cnccn1 | inactive: 107% |
| Nc1c(C(=O)Nc2ccccc2)c2nc3ccccc3nc2n1CCCN1CCOCC1 | inconclusive: 103% |
| Cn1ccc(/C=N/N=C2/NC(=O)CS2)n1 | inconclusive: 95.4% |
| CCn1c(CSCc2ccc(Cl)cc2)nnc1SCC(=O)Nc1cccc(C(=O)O)c1 | inactive: 75.8% |
| CCCNC(=O)c1ccccc1NC(=O)c1ccccc1N(C)S(=O)(=O)c1ccc(C)cc1 | inactive: 89.1% |
| COc1ccc(Cn2cccc(NC(=O)Nc3cccc(OC)c3)c2=O)cc1 | inconclusive: 71.8% |
| Cc1ccc2nc(SCC(=O)N(CC(C)C)c3c(N)n(Cc4ccccc4)c(=O)[nH]c3=O)[nH]c2c1 | inconclusive: 102% |

| SMILES | binding response (% of control) |
| --- | --- |
| COc1ccc(/C=N/OCC(=O)Nn2c(C)nc3ccccc3c2=O)cc1 | inactive: 94.8% |
| O=C(Nc1cc(C(=O)N2CCCC2)ccc1N1CCCC1)c1ccccc1 | inactive: 104% |
| COC(=O)CCC(=O)OC1(C)C(=O)C=C2C=C(C3CC3)N(Cc3ccc(OC)cc3)C=C2C1=O (stereo not given) | inconclusive: 107% |
| COc1ccc(/C=N/NC(=O)C2c3ccccc3Oc3ccccc32)c(OC)c1 | inactive: 99% |
| CC(C)C(=O)NC(CC(=O)O)c1ccccc1 (stereo not given) | inconclusive: 233% |
| COc1cc(/C=C(\C#N)C(N)=O)ccc1OCc1c(C)no[n+]1[O-] | inconclusive: 81.5% |
| S=c1[nH]nc(-c2cc(-c3ccccc3)n[nH]2)n1/N=C/C=C/c1ccco1 | inconclusive: 426% |
| O=C(NCc1cccc(Cl)c1)NC(=O)c1csc([N+](=O)[O-])c1 | inconclusive: 76.8% |
| O=C1CN2NC(=S)N(c3ccccc3)C2=CN1c1ccc(Cl)cc1 | inconclusive: 105% |
| CN1CCCN(Cc2nc(-c3ccc(Cl)cc3)no2)CC1 | inactive: 102% |
| CCOC(=O)c1[nH]c(C)c(C(=O)OCC(=O)NC2CCS(=O)(=O)C2)c1C (stereo not given) | inconclusive: 61.7% |
| CC(C(=O)Nc1ccccc1-c1ccccc1)N1CCN(C(=O)c2ccccc2)CC1 (stereo not given) | inconclusive: 104% |
| COC(=O)C1=C(N)Oc2cc(C)n(Cc3cccnc3)c(=O)c2C1c1cccc(OC)c1OC (stereo not given) | active: 240% [activator] |
| O=C(Nc1ccc(F)c([N+](=O)[O-])c1)c1ccc2c(c1)C(=O)OC2=O | inconclusive: 360% |
| Cc1ccc2c(Cl)cc(Cl)c(OCC(=O)NCCc3ccccn3)c2n1 | inconclusive: 113% |
| O=C(CSc1nnnn1C1CCCC1)Nc1ccc(F)cc1 | inactive: 129% |
| CSC(=Nc1cccc(C)c1)NC#N | inactive: 101% |
| Cc1cccc(-n2c(C)cc(C)c(C#N)c2=O)c1 | inactive: 93% |
| O=C(c1ccco1)N1N=C(C2CCCCC2)CC1(O)C(F)(F)F (stereo not given) | inactive: 101% |
| CCC1CCC(NC(=O)Nc2cccc(OC)c2)CC1 (stereo not given) | inactive: 89.1% |
| COc1cc(C)c(NC(=O)C(=S)N2CCCC2)cc1C | inconclusive: 115% |
| CC(=O)N/N=C(\C)c1ccc(Br)cc1Br | inconclusive: 65.2% |
| O=C(O)Cc1csc(-c2cccc(F)c2)n1 | inactive: 109% |

| SMILES | binding response (% of control) |
| --- | --- |
| CC(C)(C)C(=O)NC(=S)Nc1sc2c(c1C(N)=O)CCC2 | inconclusive: 103% |
| O=C1CN(C(=O)COC(=O)CNS(=O)(=O)c2ccccc2)c2ccccc2N1 | inconclusive: 91.8% |
| CC(Oc1ccc(Cl)cc1Cl)c1nc(-c2ccc(NC(=O)c3cccnc3)cc2)no1 (stereo not given) | inactive: 96.2% |
| CCc1c(C)sc(NC(=O)/C=C/C(=O)O)c1C(N)=O | inconclusive: 97.5% |
| CCOC(=O)N1CCN(C(=O)C2CCN(C(=O)c3cc(OC)cc(OC)c3)CC2)CC1 | inactive: 130% |
| Cc1ccccc1OCC(O)CN(Cc1ccccc1O)C1CCCCC1 (stereo not given) | inconclusive: 100% |
| CN1CCN(c2nc(-c3ccccc3)nc(-c3ccccc3)c2C#N)CC1 | inconclusive: 102% |
| O=c1cn[nH]c2ccccc12 | inconclusive: 100% |
| CCOCc1nnc(NC(=O)C2c3ccccc3Oc3ccccc32)s1 | inactive: 94.7% |
| Cc1cc(C)nc(NC(=O)c2ccc(Cl)c([N+](=O)[O-])c2)n1 | inconclusive: 104% |
| COC(=O)C1=NNC2(C)C(=O)N(c3ccc(C)cc3)C(=O)C12 (stereo not given) | inconclusive: 66.4% |
| Cc1cc(OCC(=O)Nc2ccc(Br)cc2)cc2c1C(=O)CC(C)(C)O2 | inconclusive: -76.9% |
| CNC(=O)CSc1nc2[nH]ncc2c(=O)[nH]1 | inactive: 96.5% |
| Cc1nc2sc3c(c2c(=O)[nH]1)CCCCC3 | inconclusive: -212% |
| CCCCc1nnc(NC(=O)C(=O)OCC)s1 | inconclusive: 97.3% |
| COc1ccccc1C(=O)N1CCNC(=O)C1CC(=O)Nc1cccc(C)c1 (stereo not given) | active: 240% [activator] |
| COc1ccc(N2CCC(CNC(=S)Nc3cc(C)cc(C)c3)C2)cc1 (stereo not given) | inconclusive: 104% |
| COc1ccc(N2C(=O)/C(=C\c3ccco3)N=C2SCC(N)=O)cc1Cl | inactive: 93.9% |
| COc1ccc(C2NCCc3c2[nH]c2ccccc32)cc1CN1CCc2cc(OC)c(OC)cc2C1C (stereo not given) | inconclusive: 121% |
| COC(=O)C1=C(C)N(Cc2ccco2)C(=O)/C1=C\c1ccc([N+](=O)[O-])cc1 | inconclusive: 169% |
| C=C1CCN([C@@H](C)C(=O)OCc2ccc(C)cc2)S(=O)(=O)c2ccccc21 | inconclusive: 105% |
| CCN(CC)C(=O)Cn1cc(C(=O)C(=O)NCc2ccco2)c2ccccc21 | inactive: 111% |
| Nc1ccccc1-c1nnc(-c2ccccc2N)n1N | inconclusive: 96.6% |

Gathered by group, the entries above with bromine

| SMILES | binding response (% of control) |
| --- | --- |
| COC(=O)CCC(=O)OC1(C)C(=O)C2=CN(CCCOC(C)C)C(c3ccc(OC)cc3)=CC2=C(Br)C1=O (stereo not given) | inconclusive: 37.7% |
| NNC(=O)c1ccc(NS(=O)(=O)c2ccc(Br)cc2)cc1 | inconclusive: 332% |
| CC(=O)N/N=C(\C)c1ccc(Br)cc1Br | inconclusive: 65.2% |
| Cc1cc(OCC(=O)Nc2ccc(Br)cc2)cc2c1C(=O)CC(C)(C)O2 | inconclusive: -76.9% |

(next part)

| SMILES | binding response (% of control) |
| --- | --- |
| CCOCCCNC(=O)C(c1ccc(C)cc1)N(Cc1cccs1)C(=O)CNC(C)=O (stereo not given) | inactive: 92.3% |
| CN(C)c1ccc(CC2C(=O)Nc3ccccc32)cc1 (stereo not given) | inconclusive: 99% |
| O=C(N/N=C/c1ccc(-c2ccccc2[N+](=O)[O-])o1)c1cncc(Br)c1 | inactive: 78.1% |
| COc1cc2c(cc1/C=C1/NC(=O)N(CC(=O)Nc3ccccc3)C1=O)OCO2 | inactive: 104% |
| CCOC(=O)c1ccc(NC(=S)N(CCCN2CCN(CC)CC2)Cc2ccco2)cc1 | inconclusive: 74.4% |
| COc1ccc([N+](=O)[O-])c(OC)c1C(=O)NC(=O)Nc1c(F)cc(F)cc1F | inconclusive: 126% |
| CC1CCc2ccccc2N1C(=N)N(C)C (stereo not given) | inconclusive: 79.6% |
| CC(C)(C)c1ccc(OC(=O)c2ccccc2)cc1 | inconclusive: 59.5% |
| CCc1ccc(NC(=O)CSc2nc3ccccc3c(=O)n2CCCC(=O)N2CCCC2)cc1 | inactive: 97.9% |
| Nc1nn(-c2ccccc2)c(N)c1N=Nc1cccc(F)c1 | inconclusive: 84.8% |
| Cc1cccc(NC(=O)c2nc[nH]c2C(=O)N[C@@H](C)C(=O)OCc2ccccc2)c1 | inconclusive: 97.3% |
| O=C(Nc1ccc2c(c1)OCO2)N1CCN(C(=O)C2CCCO2)CC1 (stereo not given) | inactive: 99.8% |
| CCC(=O)OCCNc1nc(-c2ccccc2)nc2ccccc12 | inactive: 110% |
| COc1ccc(N2CCN(C(=O)CCc3ccc(S(=O)(=O)NC(C)(C)C)cc3)CC2)cc1 | inconclusive: 122% |
| COC(=O)c1c(-c2c(Cl)cccc2Cl)noc1NC(=O)NN1CCOCC1 | inconclusive: 124% |
| Cc1ccc(C(=O)c2no[n+]([O-])c2C(=O)c2ccc(C)cc2)cc1 | inactive: 93.7% |
| O=C(CCCl)N1CCCC2(CCCCC2)C1 | inconclusive: 76.1% |
| O=C(CC(NC(=O)c1ccccc1Cl)c1ccccc1)NC1=NCCS1 (stereo not given) | inconclusive: 86.8% |
| COc1ccccc1C(=O)OCC(=O)Nc1ccccc1OC(F)F | inconclusive: 108% |
| COc1ccc(-c2nnn(Cc3nn[nH]n3)n2)cc1OC | inactive: 96.5% |
| Nc1cc(=O)[nH]c(N2CCN(c3ccccc3)CC2)n1 | inactive: 103% |

Some values from the results shown.
Under binding response (% of control), CC(O)[C@H]1CN=C(N)N1CCc1cc(C(F)(F)F)cc(C(F)(F)F)c1 (stereo not given in full) shows inconclusive: 115%
Under binding response (% of control), CCOC(=O)c1[nH]c(C)c(C(=O)OCC(=O)NC2CCS(=O)(=O)C2)c1C (stereo not given) shows inconclusive: 61.7%
